Measurements taken from ChEMBL document CHEMBL3739365, “Isolation and Structure of Kurahyne B and Total Synthesis of the Kurahynes” (J Nat Prod, 2015).
Counter-ions that a name gives are not always drawn.

Test system: HeLa
Assay: Growth inhibition of human HeLa cells after 72 hrs by MTT assay
Type: functional, cell-based

IC50: 0.5 µM
SMILES: COc1cccc2c1C(=O)c1c(O)c3c(c(O)c1C2=O)C[C@@](O)(C(=O)CO)C[C@@H]3O[C@H]1C[C@H](N)[C@H](O)[C@H](C)O1 [DOXORUBICIN HYDROCHLORIDE]
